The test concerns the target full-length EGFL7 (epitope mapping experiments). As to the kind of experiment: western blot of lysates of 293 cells transfected with full-length or truncated EGFL7. In general terms: Immunoblotting shows a protein as a band on a membrane.

These are yes or no findings as the source states them, for the method shown. A result given as binding can be weak or reduced; the word gives no strength.

B1: anti-EGFL7 mumab 4F11.1.8 (antibody, IgG2b, V domains shown)
VH: QIQLVQSGPELKKPGETVKISCKASGHTFTTYGMSWVKQAPGKGLKWMGWINTHSGVPTYADDFKGRFAFSLETSASTAHLQINNLKNEDTATYFCARLGSSAVDYWGQGTTVTVSS
VL: DIVLTQSPASLAVSLGQRATISCKASQSVDYDGDSYMSWYQQKPGQPPKLLIYGASNLESGIPARFSGSGSGTDFTLNIHPVEEEDAATYYCQQNNEDPYTFGGGTKVEIKR
Take B1: the binding result was “binds”.

For the origin of these results see patent US20100203041A1.
